Publication PMC6514072
Results are given in words; binding and its absence hold for the method and conditions named. Binding seen in cells or lysates may run through a third protein. Some results given as binding are weak or reduced against the parent protein; the word gives no strength.

Chains of the proteins cited; added tags and fusions are not shown.
UniProt P16671: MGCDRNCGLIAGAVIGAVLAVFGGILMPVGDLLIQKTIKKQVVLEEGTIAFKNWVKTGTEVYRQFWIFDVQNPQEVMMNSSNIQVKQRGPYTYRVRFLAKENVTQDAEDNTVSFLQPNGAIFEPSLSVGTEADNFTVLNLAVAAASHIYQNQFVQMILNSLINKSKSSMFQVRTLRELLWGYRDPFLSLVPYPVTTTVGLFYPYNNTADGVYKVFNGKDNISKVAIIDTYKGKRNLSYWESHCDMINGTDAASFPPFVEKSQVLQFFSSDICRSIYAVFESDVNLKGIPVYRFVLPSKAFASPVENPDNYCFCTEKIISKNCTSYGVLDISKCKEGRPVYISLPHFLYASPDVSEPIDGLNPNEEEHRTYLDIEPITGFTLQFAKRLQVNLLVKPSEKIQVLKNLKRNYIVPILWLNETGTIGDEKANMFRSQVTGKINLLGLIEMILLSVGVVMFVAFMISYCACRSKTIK

Assays:
[1] = target: NEU1 sialidase (endogenous, plasma membrane of macrophages) (human (endogenous in THP-1)) (UniProt Q99519); experiment: co-IP; crude membrane preparations of macrophages differentiated from THP-1 cells, solubilized in TEM buffer with 1% CHAPS; rabbit polyclonal anti-NEU1 or mouse monoclonal anti-CD36 on protein G Sepharose, 2 h at 4 °C; cells with or without kE; Western blot
[2] = target: Platelet glycoprotein 4 (CD36), endogenous in macrophages (human (endogenous in THP-1)) (UniProt P16671); experiment: as above
[3] = target: Platelet glycoprotein 4 (CD36), endogenous in macrophages (human (endogenous in THP-1)) (UniProt P16671); experiment: co-IP; CD36 immunoprecipitated with a mouse monoclonal anti-CD36 antibody from whole lysate of macrophages; Western blot with rabbit polyclonal anti-NEU3

## Platelet glycoprotein 4 (CD36), endogenous in macrophages (from UniProt P16671 1-472) (receptor)
[1]
  binding: binds

## NEU1 sialidase (endogenous, plasma membrane of macrophages) (from UniProt Q99519 48-415) (enzyme)
[2]
  binding: binds

B1: NEU3 (endogenous in macrophages) (enzyme, UniProt Q9UQ49 1-428)
chain: MEEVTTCSFNSPLFRQEDDRGITYRIPALLYIPPTHTFLAFAEKRSTRRDEDALHLVLRRGLRIGQLVQWGPLKPLMEATLPGHRTMNPCPVWEQKSGCVFLFFICVRGHVTERQQIVSGRNAARLCFIYSQDAGCSWSEVRDLTEEVIGSELKHWATFAVGPGHGIQLQSGRLVIPAYTYYIPSWFFCFQLPCKTRPHSLMIYSDDLGVTWHHGRLIRPMVTVECEVAEVTGRAGHPVLYCSARTPNRCRAEALSTDHGEGFQRLALSRQLCEPPHGCQGSVVSFRPLEIPHRCQDSSSKDAPTIQQSSPGSSLRLEEEAGTPSESWLLYSHPTSRKQRVDLGIYLNQTPLEAACWSRPWILHCGPCGYSDLAALEEEGLFGCLFECGTKQECEQIAFRLFTHREILSHLQGDCTSPGRNPSQFKSN
[3]
  binding: no binding
